# Measurements published in PubChem BioAssay AID1347423 (Functional Genomics Laboratory (NCATS/FGL), 2020).
# The whole screen tested about 52,000 sequences, of which about 210 (0.4%) were called active.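 The calls were made as follows: active = gene whose silencing raises cell survival under the drug, median off-target-corrected z-score across its silencing RNAs 2 or more; inactive = the rest.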 Some of the results follow.
# Assay: Resistance to Poly (ADP-Ribose) Polymerase inhibitor: Gene Identification via Genome-wide siRNA Screen
# Details: mouse BRCA2 R2336H ES cells, olaparib, CellTiter-Glo viability; stronger effect = higher value
# Outline: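 Genome-wide siRNA screen (3 siRNAs/gene, 20 nM) in mouse ES cells carrying hypomorphic BRCA2 R2336H; olaparib 500 nM added 48 h post-transfection, CellTiter-Glo viability 72 h later. Normalized to plate-median negative control; MAD z-scores, gene median, seed-adjusted.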
row,Sequence,z-score
1,GGCAUACCAAAGGUAUGAUTT against Serpine1,inactive: -0.435
2,GGUCAAAUGAAAGCUCAAGTT against Ppm1d,inactive: -2.67
3,GGCCUCAAGAAUGUAACAGTT against Psmf1,inactive: -0.851
4,GCCUAUGUACUGGUCAAGCTT against C630028L02Rik,inactive: 2.03
5,GGUCAAUUCUUUGUGAUGATT against Usf1,inactive: -0.31
6,CCUAAGGUAGUUUUACCCUTT against Shbg,inactive: -0.176
7,CCUUUGGAUCAUGCUACAATT against Csnb,inactive: 0.32
8,GGAUCUUUGCCAAGAAAUUTT against Fmo2,inactive: 1.14
9,GCAUCGAUCUUUCACCUGUTT against Htr4,inactive: 0.512
10,GGCUCUUAGGACGUGUAUATT against 3110004H13Rik,inactive: -1.28
11,GGACAACCAGCUCAUUGUGTT against Kai1,inactive: -0.52
12,GGCCUUUUACAAUGAACAUTT against Itgax,inactive: 0.211
13,GCAAGACCCUUCGAGUGAATT against Nkd2,inactive: -0.0988
14,GCUGAAGUAGGGUUUAUUATT against Gdap10,inactive: 0.524
15,GGAAAUUCAGAUGCUGAAGTT against Rab6ip2,inactive: 1.15
16,GGUCACCUACUGCUCAAACTT against Dnajc3,inactive: 0.151
17,GCUUCUUGAUGCUACUCAATT against Centb1,inactive: -0.851
18,GCCUGUGUGCUGUUGUGUUTT against Krtap5-1,inactive: 0.015
19,CCAAAAAGAUUUGGAUCUCTT against Nr2f6,inactive: -0.318
20,UGCGGUUGAAUUCUCCCAUTT against MGC62475,inactive: 0.593
21,GGAUGAUAUGGAUUCACAATT against Clgn,inactive: 1.64
22,GUGAACCACACUGUCUGAGTT against Pr1,inactive: -1.89
23,GCACCUAGUUAAUGCUGCCTT against 5830404H04Rik,inactive: 0.213
24,GCUGUAAUGCUAAUGACAUTT against Gpr22,inactive: 0.389
25,GACGCAAGCAGCAUUUUAUTT against C030046I01Rik,inactive: 1.2
26,GGAUACAGAGUAUUUCAAGTT against Rtkn,inactive: 0.812

row,Sequence,z-score
1,CCAGAAACACUAGUAAAGGTT against Dppa3,inactive: -1.13
2,GGACUUAAAACAGAAAGCATT against Ccdc5,inactive: -2.3
3,GAGAUGUCCGAAAUGCCAATT against BC017612,inactive: 1.7
4,GGAUCUGACAGCUCAUUUUTT against Casp7,inactive: 0.882
5,GGCACUAAGACCUGUUUUGTT against Msx2,inactive: 1.33
6,GCCAAAGUACUCUUACAAGTT against Tfip11,inactive: -0.826
7,GGCUCUGAGUACCUGUGGATT against Olfr646,inactive: -0.199
8,GGUUUUAGAUAUUAACCUGTT against Hnrpc,inactive: 1.89
9,CCAAUAAGGUCUCUGCCCATT against Trit1,inactive: -1.53
10,CGAAUUGUCUUUCUCACUATT against Olfr769,inactive: -0.00732
11,GGCUUUGUCUACACUUUCATT against Olfr1308,inactive: -0.973
12,GGAUUUCAGUGUCUAGAAGTT against Frmd4b,inactive: -0.81
13,GGAGAUUUUGGAAAAAGCATT against D12Ertd771e,inactive: 0.064
14,CCACUUAUAACUCAUAGUUTT against AI788959,inactive: 0.166
15,GCAUGUACCAAGGUUGAUGTT against Klhl17,inactive: -0.0563
16,GGGUCUUUAUAAACUCAGUTT against Tyr,inactive: 0.199
17,GGGUGAACUUACAGAAAUATT against Olfr214,inactive: 0.0586
18,GUCGCACCGUAUUCACUGATT against Barx1,inactive: 1.49
19,CCUAAGGAGGAUGCGUAUGTT against Mphosph10,inactive: 0.398
20,GGGAAUUCACAGUCAGCCUTT against Il27,inactive: -1.52
21,GGUUCUUGGUGAUGAUGAGTT against 9030416H16Rik,inactive: -3.23
22,GCUUCAGUAUUUAUUUGCUTT against Usp28,inactive: -0.071
23,GGACAACGAUAGCUAACCUTT against BC014795,inactive: 0.0457
24,CCCACUGGUUAUAAAUGAATT against C530044N13Rik,inactive: -0.99
25,GGGCAUGGAACAAGAUGUCTT against Nckipsd,inactive: -1.4
26,GGUUAUAAACCAGAAGAGUTT against Mill2,inactive: 0.18

row,Sequence,z-score
1,UGGGAUCUUCGUUUAAUGATT against Syncrip,inactive: 0.504
2,GGUUACAUAUCAGUUGAAATT against Slc35a3,inactive: 0.218
3,GGGUAGGUAUCAAAAUAAUTT against 6030452D12Rik,inactive: -0.189
4,GGAUCUGCUGGAAUCUCAGTT against Zfp261,inactive: 1.68
5,GGACAAAUCUUUGUUUAGCTT against Plscr3,inactive: 0.279
6,GGAAUUUCACUAUAAUCGCTT against Hoxb6,inactive: -0.191
7,GGACUCUCAAUGAUGAAUATT against 4933424A10Rik,inactive: -0.114
8,GGGAAGGAAUAUGAUGGGCTT against BC033915,inactive: -0.32
9,GCAGUGUCCAAAGCACUUUTT against Slc6a9,inactive: 0.273
10,GGGAGAAUUUUUGUGCAAGTT against Capza3,inactive: -0.362
11,CGUAAUUGUUCCAUGUAGUTT against 2700049P18Rik,inactive: 0.619
12,GGCACAACAUCAUCUGUCUTT against Psmd9,inactive: -0.488
13,GGAGAACUAUUCAGAAACUTT against Btbd11,inactive: -0.729
14,CCCAUAACAAACUAAGACGTT against Trpm4,inactive: 0.803
15,GGAGUUCAACAAUGGAUUATT against 1700019M22Rik,inactive: 1.43
16,GGAGCAGAUACAGAAGAUCTT against Pfdn2,inactive: -1.69
17,CCUUCUCAUAAGCUACGGUTT against Pms1,inactive: 0.652
18,GGAAGACCAGUAGGACUAGTT against Gast,inactive: -0.095
19,GCAUCUCUUACUAAGAUUATT against Anxa4,inactive: -0.206
20,CCUGGUAAAAGACUGGGCUTT against 1700010H15Rik,inactive: 0.505
21,GCCCACUGUAUGAAUUGUATT against Plk1,inactive: -1.95
22,GGCUUUGCAGGAAUACAUGTT against C530028I08Rik,inactive: -0.684
23,GGGCUCUUCAUUCAGACUCTT against Zfp513,inactive: 0.174
24,CCUGGCAGAGCAUUAUCUATT against AV028368,inactive: -0.26
25,CGAAUCAGUAGAUUUGACATT against Ppp1r9a,inactive: 0.768
26,GGUAUUUUGACAGAGUCGATT against Add1,inactive: 0.616

row,Sequence,z-score
1,GGAGAUCAAAUGGAUCGGCTT against Tfdp1,inactive: 0.502
2,CGUGUGUCCGAAACAGCUATT against Cog8,inactive: -0.819
3,GGCCUGGUCUUAGAAAUAGTT against Dock3,inactive: 0.9
4,CGAAGUGAAGAUUUACAGCTT against Gm67,inactive: 0.159
5,CGAAAUAGGUAUUAAGGGUTT against GA_x5J8B7TQSKC-412-5,inactive: -0.0678
6,GGACAUUUGAUAUUGAAGATT against B3gnt1,inactive: 0.555
7,GGAAAUGUGUGUUUCUUGCTT against Slco1a6,inactive: 0.356
8,GCCGUGUCCUUGCAUAACUTT against 4933400F01Rik,inactive: 0.844
9,AAGACUUGAUCUGAGCAGATT against BC065151,inactive: -0.524
10,GGUGCUAUGGCUGUGCAUATT against Doxl2,inactive: 0.748
11,GACUGAACAUAGCCUUCACTT against Olfr677,inactive: -0.791
12,GGUAAAGAGUAUGACAAUCTT against 5730538E15Rik,inactive: 0.583
13,GGAGUGUGACUCUCAGAAATT against Adar,inactive: 1.66
14,GCCAGUAAACGGAGCUACCTT against Nmt1,inactive: 0.129
15,GGCACUUAUUUCUGUGUUCTT against B230359F08Rik,inactive: -0.189
16,CCACAGUGAUUACGAUUAUTT against Mcpt2,inactive: 0.474
17,GUUGGUAGAUUCAGUUUUCTT against V1rj2,inactive: 0.201
18,GGUGAGAAGCAAACUUUCATT against Ggps1,inactive: -1.66
19,GGCGUGCACACUAAACUGGTT against Nisch,inactive: 1.21
20,GGCCAGACACAGGUAGACATT against BC028440,inactive: -0.7
21,GGUCUAUCCAGGAAAAUGGTT against Uxs1,inactive: 0.621
22,GGUACAGCGGAGAUGUACATT against Nqo2,inactive: 1.07
23,GGCUCAAGCACAUAGGAUCTT against Pdlim4,inactive: 1.46
24,CCAACUCUGUUACAUUAUGTT against Fshprh1,inactive: 0.377
25,GGCAGAGAAAUGGGCAAUGTT against Gpr81,inactive: 0.277
26,AGGUUAUUAACAGAUCUCUTT against Olfr1112,inactive: 0.151
